From patent US20150232546A1 (THROMBOGENICS, published 2015)
These are yes or no findings as the source states them, for the method shown.

How the values were obtained:
Assay in all cases: peptide ELISA
[1] = molecular target: T1, human PDGF-C peptide no. 16 (human)
T1 sequence (peptide, N-terminally biotinylated): DPEDDICKYDFVEVE

[2] = molecular target: T2, human PDGF-C peptide no. 36 (human)
T2 sequence (peptide, N-terminally biotinylated): DLIRYLEPERWQLDL

[3] = molecular target: T3, human PDGF-C peptide no. 60 (human)
T3 sequence (peptide, N-terminally biotinylated): RGLHKSLTDVALEHH

[4] = molecular target: T4, human PDGF-C peptide no. 43 (human)
T4 sequence (peptide, N-terminally biotinylated): SRVVDLNLLTEEVRL

[5] = molecular target: T5, human PDGF-C peptide no. 30 (human)
T5 sequence (peptide, N-terminally biotinylated): TEAVSPSVLPPSALP

[6] = molecular target: T6, human PDGF-C peptide no. 31 (human)
T6 sequence (peptide, N-terminally biotinylated): PSVLPPSALPLDLLN

[7] = molecular target: T7, human PDGF-C peptide no. 27 (human)
T7 peptide: Biotin-EPGFCIHYNIVMPQF

[8] = molecular target: T8, human PDGF-C peptide no. 49 (human)
T8 sequence (peptide, N-terminally biotinylated): LKRTDTIFWPGCLLV

[9] = molecular target: T9, human PDGF-C peptide no. 24 (human)
T9 sequence (peptide, N-terminally biotinylated): NQIRIRFVSDEYFPS

[10] = molecular target: T10, human PDGF-C peptide no. 19 (human)
T10 sequence (peptide, N-terminally biotinylated): EPSDGTILGRWCGSG

[11] = molecular target: T11, human PDGF-C peptide no. 14 (human)
T11 sequence (peptide, N-terminally biotinylated): LTFDERFGLEDPEDD

[12] = molecular target: T12, human PDGF-C peptide no. 25 (human)
T12 sequence (peptide, N-terminally biotinylated): RFVSDEYFPSEPGFC

[13] = molecular target: T13, human PDGF-C peptide no. 45 (human)
T13 sequence (peptide, N-terminally biotinylated): EEVRLYSCTPRNFSV

[14] = molecular target: T14, human PDGF-C peptide no. 41 (human)
T14 sequence (peptide, N-terminally biotinylated): LGKAFVFGRKSRVVD

[15] = molecular target: T15, human PDGF-C peptide no. 29 (human)
T15 sequence (peptide, N-terminally biotinylated): VMPQFTEAVSPSVLP

[16] = molecular target: T16, human PDGF-C peptide no. 51 (human)
T16 sequence (peptide, N-terminally biotinylated): GCLLVKRCGGNCACC

[17] = molecular target: T17, human PDGF-C peptide no. 9 (human)
T17 peptide: Biotin-FPHTYPRNTVLVWRL

[18] = molecular target: T18, human PDGF-C peptide no. 10 (human)
T18 sequence (peptide, N-terminally biotinylated): PRNTVLVWRLVAVEE

[19] = molecular target: T19, human PDGF-C peptide no. 32 (human)
T19 sequence (peptide, N-terminally biotinylated): PSALPLDLLNNAITA

[20] = molecular target: T20, human PDGF-C peptide no. 11 (human)
T20 sequence (peptide, N-terminally biotinylated): LVWRLVAVEENVWIQ

[21] = molecular target: T21, human PDGF-C peptide no. 56 (human)
T21 sequence (peptide, N-terminally biotinylated): PSKVTKKYHEVLQLR

[22] = molecular target: T22, human PDGF-C peptide no. 8 (human)
T22 sequence (peptide, N-terminally biotinylated): IHSPRFPHTYPRNTV

[23] = molecular target: T23, human PDGF-C peptide no. 13 (human)
T23 sequence (peptide, N-terminally biotinylated): NVWIQLTFDERFGLE

[24] = molecular target: T24, human PDGF-C peptide no. 33 (human)
T24 sequence (peptide, N-terminally biotinylated): LDLLNNAITAFSTLE

[25] = molecular target: T25, human PDGF-C peptide no. 12 (human)
T25 sequence (peptide, N-terminally biotinylated): VAVEENVWIQLTFDE

[26] = molecular target: T26, human PDGF-C peptide no. 53 (human)
T26 sequence (peptide, N-terminally biotinylated): NCACCLHNCNECQCV

[27] = molecular target: T27, human PDGF-C peptide no. 15 (human)
T27 sequence (peptide, N-terminally biotinylated): RFGLEDPEDDICKYD

[28] = molecular target: T28, human PDGF-C peptide no. 3 (human)
T28 sequence (peptide, N-terminally biotinylated): SSNKEQNGVQDPQHE

[29] = molecular target: T29, human PDGF-C peptide no. 37 (human)
T29 sequence (peptide, N-terminally biotinylated): LEPERWQLDLEDLYR

[30] = molecular target: T30, human PDGF-C peptide no. 42 (human)
T30 sequence (peptide, N-terminally biotinylated): VFGRKSRVVDLNLLT

[31] = molecular target: T31, human PDGF-C peptide no. 50 (human)
T31 sequence (peptide, N-terminally biotinylated): TIFWPGCLLVKRCGG

[32] = molecular target: T32, human PDGF-C peptide no. 5 (human)
T32 sequence (peptide, N-terminally biotinylated): DPQHERIITVSTNGS

[33] = molecular target: T33, human PDGF-C peptide no. 2 (human)
T33 sequence (peptide, N-terminally biotinylated): SKFQFSSNKEQNGVQ

[34] = molecular target: T34, human PDGF-C peptide no. 21 (human)
T34 sequence (peptide, N-terminally biotinylated): WCGSGTVPGKQISKG

[35] = molecular target: T35, human PDGF-C peptide no. 35 (human)
T35 sequence (peptide, N-terminally biotinylated): FSTLEDLIRYLEPER

[36] = molecular target: T36, human PDGF-C peptide no. 44 (human)
T36 sequence (peptide, N-terminally biotinylated): LNLLTEEVRLYSCTP

[37] = molecular target: T37, human PDGF-C peptide no. 47 (human)
T37 sequence (peptide, N-terminally biotinylated): RNFSVSIREELKRTD

[38] = molecular target: T38, human PDGF-C peptide no. 40 (human)
T38 sequence (peptide, N-terminally biotinylated): PTWQLLGKAFVFGRK

[39] = molecular target: T39, human PDGF-C peptide no. 22 (human)
T39 sequence (peptide, N-terminally biotinylated): TVPGKQISKGNQIRI

[40] = molecular target: T40, human PDGF-C peptide no. 7 (human)
T40 sequence (peptide, N-terminally biotinylated): STNGSIHSPRFPHTY

[41] = molecular target: T41, human PDGF-C peptide no. 20 (human)
T41 sequence (peptide, N-terminally biotinylated): TILGRWCGSGTVPGK

[42] = molecular target: T42, human PDGF-C peptide no. 52 (human)
T42 sequence (peptide, N-terminally biotinylated): KRCGGNCACCLHNCN

[43] = molecular target: T43, human PDGF-C peptide no. 62 (human)
T43 sequence (peptide, N-terminally biotinylated): ALEHHEECDCVCRGS

[44] = molecular target: T44, human PDGF-C peptide no. 1 (human)
T44 sequence (peptide, N-terminally biotinylated): ESNLSSKFQFSSNKE

[45] = molecular target: T45, human PDGF-C peptide no. 34 (human)
T45 sequence (peptide, N-terminally biotinylated): NAITAFSTLEDLIRY

[46] = molecular target: T46, human PDGF-C peptide no. 54 (human)
T46 sequence (peptide, N-terminally biotinylated): LHNCNECQCVPSKVT

[47] = molecular target: T47, human PDGF-C peptide no. 17 (human)
T47 sequence (peptide, N-terminally biotinylated): ICKYDFVEVEEPSDG

[48] = molecular target: T48, human PDGF-C peptide no. 57 (human)
T48 sequence (peptide, N-terminally biotinylated): KKYHEVLQLRPKTGV

Measured: binding

B1: anti-PDGF-C antibody 5H7 (antibody, IgG1, V domains shown)
VH: EVQLVESGGDLVKPGGSLKLSCAASGFTFSSYGMSWVRQTPDKRLEWVATIGYGGSFTYYPDSMKGRFTISRDNAKNTLFLQMSSLKSEDTAIYYCVRQAPLWDYFDYWGQGTTLTVSS
VL: DVLMTQTPLSLPVSLGDQASISCRSSQTIVHSDGTTYLEWYLQKAGQSPKLLIYKVSNRFSGVPDRFSGSGSGTDFTLKISRVEAEDLGVYYCFQGSHVPPTFGGGTKLEIK
notes: Mouse monoclonal from hybridoma, IgG1, kappa; also called mAb 5H7; hybridoma LMBP 9485CB
no binding (tested: 1 µg/mL): [1] | [2] | [3] | [4] | [5] | [6] | [7] | [8] | [9] | [10] | [11] | [12] | [13] | [14] | [15] | [16] | [17] | [18] | [19] | [20] | [21] | [22] | [23] | [24] | [25] | [26] | [27] | [28] | [29] | [30] | [31] | [32] | [33] | [34] | [35] | [36] | [37] | [38] | [39] | [40] | [41] | [42] | [43] | [44] | [45] | [46] | [47] | [48]
